In the supplement of paper PMC3334620:
Over roughly 33,000 sequences, “E-score (-0.5 to 0.5)” has its median near -0.0059; the highest 2% begin near 0.26. This is one part of the list.

What follows are sequences tested against T1, Cin5 (UniProt P40917) (assay: PBM E-score (8-mer binding enrichment) (E-score (-0.5 to 0.5)); higher = stronger / more preferred TF binding). Settings: protein concentration: 100 nM; construct: GST-full length.
T1 sequence: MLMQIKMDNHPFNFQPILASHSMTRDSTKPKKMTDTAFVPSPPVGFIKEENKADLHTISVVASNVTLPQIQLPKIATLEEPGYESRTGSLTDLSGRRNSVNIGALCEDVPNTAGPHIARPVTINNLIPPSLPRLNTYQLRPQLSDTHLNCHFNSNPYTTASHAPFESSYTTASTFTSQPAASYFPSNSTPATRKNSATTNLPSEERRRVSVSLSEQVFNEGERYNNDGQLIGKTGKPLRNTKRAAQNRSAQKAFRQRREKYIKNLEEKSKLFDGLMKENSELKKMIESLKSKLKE
In short: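 Full-length yeast transcription factors or their DNA-binding domains, GST-tagged and expressed with PURExpress, were applied at about 100-200 nM to universal all-10-mer Agilent arrays. These arrays had been made double-stranded by primer extension on fresh or once-stripped slides. Detection used fluorescent anti-GST, normalisation used masliner, and E-scores for ungapped eight-base words pooled with reverse complements came from the Universal PBM Analysis Suite.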

| Sequence | PBM E-score |
| --- | --- |
| AGGGATCA | -0.00959 |
| AGCAACCC | -0.0945 |
| CACTGAGC | -0.0573 |
| GTGAGAAC | -0.076 |
| CCCTCAAA | -0.0604 |
| GCCCTGAC | -0.182 |
| TACACTGA | 0.0659 |
| GAAGCGAA | -0.0046 |
| ACAGACTG | -0.0597 |
| ATGATTAA | 0.256 |
| TCACACGA | 0.0679 |
| AGTATCGG | -0.0518 |
| ACATTCGT | 0.1 |
| CAATTAGG | 0.0254 |
| CTCCAATA | 0.0927 |
| ACAAAGGA | 0.148 |
| ATCGGCCG | -0.179 |
| CACCTATA | 0.0663 |
| AGACGTCG | -0.128 |
| GACGGTAA | -0.0417 |
| GGCCTGAA | -0.222 |
| ACTTGTCG | -0.00214 |
| CAATCAAC | 0.203 |
| GGAAACCA | -0.0564 |
| AAATGTAA | 0.14 |

| Sequence | PBM E-score |
| --- | --- |
| AGTTTCTC | -0.0286 |
| GAAGGACA | -0.0373 |
| ACAGCGTA | -0.0981 |
| ACTCTACG | -0.144 |
| AGTGACAG | -0.0297 |
| GATCAGAA | -0.0634 |
| ATACCCCG | 0.0236 |
| CATTCAGC | 0.0234 |
| AAGGGCAA | -0.0726 |
| CATGTCCA | 0.0503 |
| CTACCCAA | -0.00884 |
| GTCGCGCA | -0.0445 |
| CTACAAAG | -0.0388 |
| CAGCTATG | -0.161 |
| CATGGACA | -0.178 |
| AACAGGCG | -0.132 |
| GCGTGGCA | -0.204 |
| ATAATGTA | 0.251 |
| CAGTGTTA | 0.241 |
| ACCCGACC | -0.123 |
| GATCGACC | -0.113 |
| TAGGGCAA | -0.0426 |
| CAGTCATA | 0.037 |
| CCGCTTGA | -0.108 |
| GCCCTCCC | -0.317 |

| Sequence | PBM E-score |
| --- | --- |
| AGCGATAT | 0.184 |
| CAAAATAC | 0.0689 |
| CCAATTGA | 0.143 |
| GTTATTCA | 0.143 |
| ATGCACTA | -0.0624 |
| GACCCAAA | 0.04 |
| CGCCACCC | -0.091 |
| GGCAAGAC | -0.0509 |
| TAAGTGAA | 0.179 |
| ATCACCTG | 0.148 |
| ACTCTGCA | 0.149 |
| GCGAGCCA | -0.0133 |
| CAGATCGG | -0.0356 |
| CGTACAGC | -0.104 |
| ATTATTGG | 0.151 |
| CCTAGATC | -0.0288 |
| GCTAAAGC | -0.125 |
| ATGGACAT | 0.00653 |
| CCTCTTTA | -0.155 |
| GTAGTGTA | -0.01 |
| CCCGTAAG | 0.0415 |
| ACCATTTC | 0.0809 |
| AACCCATC | 0.0393 |
| CAGAAATG | 0.0485 |
| GGGTGAGA | -0.215 |

An excerpt of these results, with bars between the fields:
Sequence | PBM E-score
GGCAAGAC | -0.0509
TAAGTGAA | 0.179

Next part.

| Sequence | PBM E-score |
| --- | --- |
| CGGTTCAG | -0.33 |
| CTCCCGAC | -0.204 |
| AAGGCTTC | -0.101 |
| GCGCAGAC | -0.178 |
| CCAGAAGA | -0.107 |
| CCTTTCAA | -0.0565 |
| ACGCGATG | 0.0661 |
| CCTACAAG | -0.23 |
| GAGAGATA | 0.0117 |
| ATGATAGA | -0.0131 |
| CGACTCTA | -0.0916 |
| ACCAAACA | 0.156 |
| CCCTGACC | -0.0906 |
| CACCACAG | 0.00324 |
| ACAGCCCC | -0.145 |
| AGGATCAC | 0.146 |
| CCCTCAAG | -0.181 |
| CTGACGTA | 0.278 |
| CTCGGTGA | -0.132 |
| ACCTCAAC | 0.0171 |
| CCATCAGA | -0.0356 |
| CAAAGAAC | -0.0292 |
| GTATAGAA | 0.0354 |
| AGTGATCG | 0.0242 |
| ATGAACGG | -0.0835 |

An excerpt of these results, field by field.
CGACTCTA
  PBM E-score: -0.0916
ACCAAACA
  PBM E-score: 0.156
CCCTGACC
  PBM E-score: -0.0906

Carrying on.

| Sequence | PBM E-score |
| --- | --- |
| CTAGCGTC | -0.166 |
| ACTGTATA | 0.0678 |
| CAACCTAA | 0.108 |
| GAAAGGCA | -0.0198 |
| GGAGTGGA | -0.12 |
| ATCTGTAC | 0.214 |
| CATGAAAC | 0.111 |
| ACGGCGAA | -0.00499 |
| TACGTCCA | -0.164 |
| GTCGACGA | -0.0261 |
| CCCTGGTA | -0.196 |
| ATACCATA | 0.259 |
| ACGCCCGT | 0.106 |
| CGTTGAGC | -0.0617 |
| TGGACGAA | 0.0682 |
| CATTAAGG | 0.00518 |
| CGACACCG | -0.236 |
| AGCTATGG | -0.0652 |
| AAATAACT | 0.226 |
| CTGGTGCC | -0.283 |
| TAAAATAA | 0.141 |
| CGGACTTC | -0.131 |
| GCTCGACC | -0.178 |
| ACAGTAAT | 0.196 |
| GGACAGTA | 0.152 |

Five records drawn at random from those above:

| Sequence | PBM E-score |
| --- | --- |
| GGACAGTA | 0.152 |
| CACCACAG | 0.00324 |
| CCCGTAAG | 0.0415 |
| TAAAATAA | 0.141 |
| AGTGATCG | 0.0242 |

Additional results follow:

| Sequence | PBM E-score |
| --- | --- |
| CTGCTTTA | 0.278 |
| CACCTGAA | 0.0306 |
| CACCTATC | 0.0277 |
| TCGGTTCA | -0.154 |
| CTACCGGA | -0.106 |
| ATTCTGCG | 0.137 |
| GATGCTCA | -0.0503 |
| AATCTGGC | -0.0968 |
| AACGAGCG | -0.0134 |
| AAGTCGCG | 0.0757 |
| CCGTCAGA | -0.178 |
| CCGCCGGC | 0.00483 |
| ACTGAAAC | 0.243 |
| CTTTCCCC | 0.0318 |
| ACACAAAA | 0.0942 |
| AGCTGCTG | 0.022 |
| ATGTTGTA | 0.263 |
| ACTGTGTG | -0.0399 |
| AACCTAGT | -0.0128 |
| ATTTTTAC | 0.0248 |
| CGTCTATA | 0.102 |
| ACAGTAGT | 0.0569 |
| GCGTAGAA | -0.0476 |
| CACGACCC | -0.119 |
| AAGTGTGT | -0.0443 |

| Sequence | PBM E-score |
| --- | --- |
| GGAAAGGA | -0.0917 |
| GACCTAAC | 0.0765 |
| AACGCCGG | -0.0293 |
| CTAAACGA | 0.0794 |
| CTTCTCGA | 0.0744 |
| CATATAGA | 0.171 |
| ATCTGGTG | 0.175 |
| ATGCCCAA | -0.0408 |
| ACGCGATC | 0.24 |
| AGTCTGAT | -0.0749 |
| CGAGGACA | -0.0409 |
| GAGACACC | -0.169 |
| GCCGATGA | -0.0683 |
| GGCTTCAC | -0.207 |
| TAATCACA | 0.222 |
| ACGAAAGC | -0.102 |
| ATGAACCG | -0.0498 |
| ACCTTAAG | -0.071 |
| CCCCGAAA | 0.0433 |
| AATCGTCG | 0.14 |
| CGACCCCC | -0.452 |
| GAGGTCAC | -0.133 |
